Shown are survivors of the treated group in tumour-free mice. Counts of survivors are from the toxicity check (mostly the fifth day) where no day follows; animals may have died later. Schedule codes are those of the source, taken here to give the interval after Q, in days (D) or hours (H), and the number of doses after X. Some entries hold several experiments; the values are given in rising order.
System: CD2F1 mice, nontumored, toxicity/survival
Experiment: NCI In Vivo Anticancer Drug Screen. Data for tumor model Nontumored Animals (Toxicity Test) in CD2F1 (CDF1) mice

For `O=c1c2ccccc2c(-c2ccc(N(CCCl)CCCl)cc2)cn1CCCl`, the survivor count (dose: 1.0 mg/kg/injection, schedule: Q01DX001 (ip), vehicle: Klucel (hydroxypropylcellulose) (HPC)) was 2 of 2, the survivor count (dose: 10.0 mg/kg/injection, schedule: Q01DX001 (ip), vehicle: Klucel (hydroxypropylcellulose) (HPC)) was 2 of 2 and the survivor count (dose: 100.0 mg/kg/injection, schedule: Q01DX001 (ip), vehicle: Klucel (hydroxypropylcellulose) (HPC)) was 2 of 2.
For `CC1=CC(C)(C)Nc2ccc(Cc3ccc4c(c3)C(C)=CC(C)(C)N4)cc21`, the survivor count (dose: 838.0 mg/kg/injection, schedule: Q01DX001 (ip), vehicle: saline) was 10 of 10, the survivor count (dose: 838.0 mg/kg/injection, schedule: Q01DX001 (ip), vehicle: saline with Tween-80) was 9 of 10 and the survivor count (dose: 1048.0 mg/kg/injection, schedule: Q01DX001 (ip), vehicle: saline) was 10 of 10. The survivor count (dose: 1048.0 mg/kg/injection, schedule: Q01DX001 (ip), vehicle: saline with Tween-80) was 9 of 10, the survivor count (dose: 1310.0 mg/kg/injection, schedule: Q01DX001 (ip), vehicle: saline) was 9 of 10 and the survivor count (dose: 1310.0 mg/kg/injection, schedule: Q01DX001 (ip), vehicle: saline with Tween-80) was 8 of 10. The survivor count (dose: 1638.0 mg/kg/injection, schedule: Q01DX001 (ip), vehicle: saline) was 7 of 10, the survivor count (dose: 1638.0 mg/kg/injection, schedule: Q01DX001 (ip), vehicle: saline with Tween-80) was 5 of 10 and the survivor count (dose: 2048.0 mg/kg/injection, schedule: Q01DX001 (ip), vehicle: other) was 10 of 10. The survivor count (dose: 2048.0 mg/kg/injection, schedule: Q01DX001 (ip), vehicle: saline) was 9 of 10, the survivor count (dose: 2048.0 mg/kg/injection, schedule: Q01DX001 (ip), vehicle: saline with Tween-80) was 2 of 10 and the survivor count (dose: 2048.0 mg/kg/injection, schedule: Q01DX001 (oral), vehicle: other) was 10 of 10. For the same compound, the survivor count (dose: 2048.0 mg/kg/injection, schedule: Q01DX001 (sc), vehicle: other) was 10 of 10, the survivor count (dose: 2560.0 mg/kg/injection, schedule: Q01DX001 (ip), vehicle: other) was 10 of 10 and the survivor count (dose: 2560.0 mg/kg/injection, schedule: Q01DX001 (ip), vehicle: saline) was 5 of 10. The survivor count (dose: 2560.0 mg/kg/injection, schedule: Q01DX001 (ip), vehicle: saline with Tween-80) was 1 of 10, the survivor count (dose: 2560.0 mg/kg/injection, schedule: Q01DX001 (oral), vehicle: other) was 10 of 10 and the survivor count (dose: 2560.0 mg/kg/injection, schedule: Q01DX001 (sc), vehicle: other) was 10 of 10. The survivor count (dose: 3200.0 mg/kg/injection, schedule: Q01DX001 (ip), vehicle: other) was 10 of 10, the survivor count (dose: 3200.0 mg/kg/injection, schedule: Q01DX001 (ip), vehicle: saline with Tween-80) was 0 of 10 and the survivor count (dose: 3200.0 mg/kg/injection, schedule: Q01DX001 (oral), vehicle: other) was 10 of 10. The survivor count (dose: 3200.0 mg/kg/injection, schedule: Q01DX001 (sc), vehicle: other) was 10 of 10, the survivor count (dose: 4000.0 mg/kg/injection, schedule: Q01DX001 (ip), vehicle: other) was 10 of 10 and the survivor count (dose: 4000.0 mg/kg/injection, schedule: Q01DX001 (ip), vehicle: saline with Tween-80) was 0 of 10. The survivor count (dose: 4000.0 mg/kg/injection, schedule: Q01DX001 (oral), vehicle: other) was 10 of 10, the survivor count (dose: 4000.0 mg/kg/injection, schedule: Q01DX001 (sc), vehicle: other) was 10 of 10 and the survivor count (dose: 4000.0 mg/kg/injection, schedule: Q01DX005 (ip), vehicle: other) was 9 of 10. The survivor count (dose: 4000.0 mg/kg/injection, schedule: Q01DX005 (oral), vehicle: other) was 1 of 10, the survivor count (dose: 4000.0 mg/kg/injection, schedule: Q01DX005 (sc), vehicle: other) was 10 of 10 and the survivor count (dose: 5000.0 mg/kg/injection, schedule: Q01DX001 (ip), vehicle: other) was 9 of 10. For the same compound, the survivor count (dose: 5000.0 mg/kg/injection, schedule: Q01DX001 (ip), vehicle: saline with Tween-80) was 0 of 10, the survivor count (dose: 5000.0 mg/kg/injection, schedule: Q01DX001 (oral), vehicle: other) was 10 of 10 and the survivor count (dose: 5000.0 mg/kg/injection, schedule: Q01DX001 (sc), vehicle: other) was 10 of 10. The survivor count (dose: 5000.0 mg/kg/injection, schedule: Q01DX005 (ip), vehicle: other) was 6 of 10, the survivor count (dose: 5000.0 mg/kg/injection, schedule: Q01DX005 (oral), vehicle: other) was 0 of 10 and the survivor count (dose: 5000.0 mg/kg/injection, schedule: Q01DX005 (sc), vehicle: other) was 10 of 10. The survivor count (dose: 6250.0 mg/kg/injection, schedule: Q01DX001 (ip), vehicle: other) was 6 of 10, the survivor count (dose: 6250.0 mg/kg/injection, schedule: Q01DX001 (oral), vehicle: other) was 9 of 10 and the survivor count (dose: 6250.0 mg/kg/injection, schedule: Q01DX001 (sc), vehicle: other) was 10 of 10. For the same compound, the survivor count (dose: 6250.0 mg/kg/injection, schedule: Q01DX005 (ip), vehicle: other) was 0 of 10, the survivor count (dose: 6250.0 mg/kg/injection, schedule: Q01DX005 (oral), vehicle: other) was 0 of 10 and the survivor count (dose: 6250.0 mg/kg/injection, schedule: Q01DX005 (sc), vehicle: other) was 9 of 10.
In the case of `C=CCNC(=O)NCC=C`, the survivor count (dose: 25.0 mg/kg/injection, schedule: Q01DX006 (ip), vehicle: saline) is reported as 10 of 10, the survivor count (dose: 50.0 mg/kg/injection, schedule: Q01DX006 (ip), vehicle: saline) is reported as 10 of 10 and the survivor count (dose: 100.0 mg/kg/injection, schedule: Q01DX006 (ip), vehicle: saline) is reported as 10 of 10. For the same compound, the survivor count (dose: 200.0 mg/kg/injection, schedule: Q01DX006 (ip), vehicle: saline) was 10 of 10.
In the case of `COc1ccc2c(c1OC(C)=O)-c1cc(OC(C)=O)cc3c1C(C2)N(C(=O)CN(CCCl)CCCl)CC3` (stereo not drawn), the survivor count (dose: 1.0 mg/kg/injection, schedule: Q01DX001 (ip), vehicle: DMSO) is reported as 2 of 2, the survivor count (dose: 10.0 mg/kg/injection, schedule: Q01DX001 (ip), vehicle: DMSO) is reported as 2 of 2 and the survivor count (dose: 100.0 mg/kg/injection, schedule: Q01DX001 (ip), vehicle: DMSO) is reported as 2 of 2.
With `CC[C@]1(O)C[C@H]2CN(CCc3c([nH]c4ccccc34)[C@@](C(=O)OC)(c3cc4c(cc3OC)N(C=O)[C@H]3[C@@](O)(C(=O)OC)[C@H](OC(C)=O)[C@]5(CC)C=CCN6CC[C@]43[C@@H]65)C2)C1` the survivor count (dose: 0.13 mg/kg/injection, schedule: Q04DX003 (ip), vehicle: saline) was 5 of 5, the survivor count (dose: 0.25 mg/kg/injection, schedule: Q04DX003 (ip), vehicle: saline) was 4 of 4 and 5 of 5 and the survivor count (dose: 0.37 mg/kg/injection, schedule: Q04DX002 (ip), vehicle: saline) was 4 of 4. For the same compound, the survivor count (dose: 0.5 mg/kg/injection, schedule: Q04DX003 (ip), vehicle: saline) was 4 of 4 and 5 of 5, the survivor count (dose: 0.75 mg/kg/injection, schedule: Q04DX002 (ip), vehicle: saline) was 4 of 4 and the survivor count (dose: 1.0 mg/kg/injection, schedule: Q01DX009 (ip), vehicle: saline) was 10 of 10. The survivor count (dose: 1.0 mg/kg/injection, schedule: Q04DX003 (ip), vehicle: saline) was 10 of 10, 4 of 4, 5 of 5, 9 of 9, the survivor count (dose: 1.5 mg/kg/injection, schedule: Q01DX009 (ip), vehicle: saline) was 10 of 10 and the survivor count (dose: 1.5 mg/kg/injection, schedule: Q04DX002 (ip), vehicle: saline) was 4 of 4. For the same compound, the survivor count (dose: 1.5 mg/kg/injection, schedule: Q04DX003 (ip), vehicle: saline) was 10 of 10, the survivor count (dose: 2.0 mg/kg/injection, schedule: Q04DX003 (ip), vehicle: saline) was 4 of 4 and 5 of 5 and the survivor count (dose: 3.0 mg/kg/injection, schedule: Q04DX002 (ip), vehicle: saline) was 4 of 4. For the same compound, the survivor count (dose: 4.0 mg/kg/injection, schedule: Q04DX003 (ip), vehicle: saline) was 4 of 4.
`N#Cc1ccccc1C(C#N)c1ccc([N+](=O)[O-])cc1` (stereo not drawn) was tested, and the survivor count (dose: 1.0 mg/kg/injection, schedule: Q01DX001 (ip), vehicle: saline with Tween-80) was 2 of 2, the survivor count (dose: 10.0 mg/kg/injection, schedule: Q01DX001 (ip), vehicle: saline with Tween-80) was 2 of 2 and the survivor count (dose: 100.0 mg/kg/injection, schedule: Q01DX001 (ip), vehicle: saline with Tween-80) was 2 of 2.
